Results: article PMC4586916
These are yes or no findings as the source states them, for the method shown. In cells and extracts the contact can be indirect. Some binding calls cover weakened binding; strength is not graded here.

The chains behind the UniProt entries cited, without tags or fusion partners. Where a name states a change or a piece, a line headed by the entry shows the natural chain unless it says otherwise. A line that says so, or that is headed by a name, gives the form on record, which may keep a tag or linker. Residues count along the entry.
UniProt Q9UPP1, residues 37-1060: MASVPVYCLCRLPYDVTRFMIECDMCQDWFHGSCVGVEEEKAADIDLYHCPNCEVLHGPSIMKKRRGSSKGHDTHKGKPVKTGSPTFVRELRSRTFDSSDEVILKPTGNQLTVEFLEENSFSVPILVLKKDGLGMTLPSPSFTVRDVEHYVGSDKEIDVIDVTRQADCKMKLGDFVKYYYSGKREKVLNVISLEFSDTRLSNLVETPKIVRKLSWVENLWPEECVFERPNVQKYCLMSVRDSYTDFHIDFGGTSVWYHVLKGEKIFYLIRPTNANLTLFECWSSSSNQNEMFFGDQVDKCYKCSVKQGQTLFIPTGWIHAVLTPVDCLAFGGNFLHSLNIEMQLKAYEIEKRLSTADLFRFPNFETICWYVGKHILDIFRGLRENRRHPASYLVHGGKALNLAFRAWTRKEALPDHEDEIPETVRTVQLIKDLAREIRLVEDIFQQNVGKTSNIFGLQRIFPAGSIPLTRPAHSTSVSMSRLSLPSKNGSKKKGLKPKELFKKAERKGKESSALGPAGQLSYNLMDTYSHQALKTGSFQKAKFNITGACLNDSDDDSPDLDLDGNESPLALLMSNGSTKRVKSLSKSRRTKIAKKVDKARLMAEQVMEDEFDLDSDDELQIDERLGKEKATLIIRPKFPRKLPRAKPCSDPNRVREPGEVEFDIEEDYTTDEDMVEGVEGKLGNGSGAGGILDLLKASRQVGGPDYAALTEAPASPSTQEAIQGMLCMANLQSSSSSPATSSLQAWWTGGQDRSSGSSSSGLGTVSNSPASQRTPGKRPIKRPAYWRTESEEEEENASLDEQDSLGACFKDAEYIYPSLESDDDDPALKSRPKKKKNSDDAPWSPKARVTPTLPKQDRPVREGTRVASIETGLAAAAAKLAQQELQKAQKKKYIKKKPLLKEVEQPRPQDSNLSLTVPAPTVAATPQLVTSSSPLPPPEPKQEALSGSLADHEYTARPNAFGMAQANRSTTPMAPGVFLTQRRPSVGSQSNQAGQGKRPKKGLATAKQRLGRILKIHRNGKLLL
UniProt Q92993: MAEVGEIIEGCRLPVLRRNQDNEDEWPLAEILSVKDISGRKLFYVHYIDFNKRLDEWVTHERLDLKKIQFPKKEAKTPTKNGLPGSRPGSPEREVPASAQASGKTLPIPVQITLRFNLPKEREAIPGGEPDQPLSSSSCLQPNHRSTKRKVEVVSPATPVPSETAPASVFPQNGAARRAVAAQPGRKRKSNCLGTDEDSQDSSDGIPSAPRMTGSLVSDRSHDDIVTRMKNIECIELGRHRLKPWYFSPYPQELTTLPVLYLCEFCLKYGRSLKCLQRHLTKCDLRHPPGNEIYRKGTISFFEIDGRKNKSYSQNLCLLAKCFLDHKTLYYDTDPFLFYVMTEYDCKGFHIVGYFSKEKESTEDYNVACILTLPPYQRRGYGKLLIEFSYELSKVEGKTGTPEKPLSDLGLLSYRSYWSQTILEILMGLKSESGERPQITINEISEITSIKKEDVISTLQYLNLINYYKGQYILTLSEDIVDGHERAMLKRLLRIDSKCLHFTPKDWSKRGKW
TIP60 construct F (C-terminus TIP60, excluding the chromo domain), fused to YFP: residues 66-513 of Q92993
TIP60−YFP (Q92993-3, form named): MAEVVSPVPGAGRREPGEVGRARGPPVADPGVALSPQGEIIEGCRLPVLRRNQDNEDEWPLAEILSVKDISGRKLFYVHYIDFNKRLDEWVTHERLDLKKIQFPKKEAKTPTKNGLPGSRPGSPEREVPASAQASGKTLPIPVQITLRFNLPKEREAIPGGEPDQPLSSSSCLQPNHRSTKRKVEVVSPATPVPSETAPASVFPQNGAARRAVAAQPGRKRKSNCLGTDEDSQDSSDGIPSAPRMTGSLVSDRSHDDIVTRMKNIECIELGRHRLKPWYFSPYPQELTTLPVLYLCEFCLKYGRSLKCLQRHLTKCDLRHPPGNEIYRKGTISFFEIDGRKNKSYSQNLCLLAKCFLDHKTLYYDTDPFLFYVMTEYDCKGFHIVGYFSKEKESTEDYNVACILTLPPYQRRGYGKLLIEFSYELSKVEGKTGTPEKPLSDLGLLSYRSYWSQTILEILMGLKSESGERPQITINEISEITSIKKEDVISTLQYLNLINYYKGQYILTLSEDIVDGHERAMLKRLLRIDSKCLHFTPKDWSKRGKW

Experiments:
PHF8−YFP (human) [1] = biological target: PHF8−YFP (human) (UniProt Q9UPP1); assay: co-IP; HEK293 cells cotransfected with a YFP fusion (bait) and a FLAG fusion (prey); anti-GFP antibody and Protein-A/G Plus-Agarose; lysis and wash buffer 5 mM HEPES pH 7.2, 0.5% NP40, 250 mM NaCl, 2 mM EDTA, 10% glycerol; on ice or 4°C; three washes; anti-FLAG Western blot
PHF8−YFP (human) [2] = biological target: PHF8−YFP (human) (UniProt Q9UPP1); assay: proximity ligation; P-LISA (Duolink II) on fixed HEK293 cells stably transfected with PHF8−YFP; mouse anti-GFP and goat anti-TIP60 primary antibodies; detects molecules less than 30 nm apart; PHF8 shRNA reduced the number of hotspots
[3] = biological target: TIP60 construct F (C-terminus TIP60, excluding the chromo domain), fused to YFP (UniProt Q92993); assay: co-IP; HEK293 cells cotransfected with a YFP fusion (bait) and a FLAG fusion (prey); anti-GFP antibody and Protein-A/G Plus-Agarose; lysis and wash buffer 5 mM HEPES pH 7.2, 0.5% NP40, 250 mM NaCl, 2 mM EDTA, 10% glycerol; on ice or 4°C; three washes; anti-FLAG Western blot
TIP60−YFP = TIP60−YFP (UniProt Q92993); assay: as above

“TIP60−FLAG (from UniProt Q92993-3 1-546)” was tested, and the binding (PHF8−YFP (human) [1]) was “binds”.
For “endogenous TIP60 (HEK293 cells) (from UniProt Q92993 1-513)”, the binding (PHF8−YFP (human) [2]) was “binds”.
With “PHF8−FLAG (from UniProt Q9UPP1-2 1-1024)” the binding [3] was “binds” and the binding (TIP60−YFP) was “binds”.
